System: CD44high HCC cells (SNU423, SNU449, SK-Hep-1)
Assay: Cell proliferation, WST-1 assay, CD44high HCC cells
Assay type: cell-based, human
Details: SNU423 and SNU449 cells; 48 h

CC(C)n1nc(-c2cc3cc(O)ccc3[nH]2)c2c(N)ncnc21 [PP242]
anti-proliferative activity versus allosteric mTOR inhibitors: better anti-proliferative activity than rapamycin and everolimus
